Experimental data taken from patent publication US9795131B2, “Sophorolactone compositions and uses thereof” (ECOVER CO-ORDINATION CENTER N.V., priority 2011, dated 2017).
At least one structure is not confirmed: it was looked up by name or label, or the drawing left a doubt.

Key:
[1] = Capacity of solvents to dissolve sophorolactone; format: physicochemical; conditions: percent sophorolactone dissolved by the solvent at room temperature
[2] = cited from earlier work

For `OCCOc1ccccc1` [Phenoxyethanol], the “% lactone dissolved” value [1] is given as 35.53%, the δD dispersion parameter [2] is given as 17.8 MPa^1/2 and the “δH hydrogen bonding parameter” value [2] is given as 14.3 MPa^1/2. The δP polar parameter [2] was 5.7 MPa^1/2.
